# Results: the supplement of paper PMC8728848
# Some of the results follow.
# Assays:
# Assay in all cases: glycan array binding signal (z-score within array); higher = stronger binding
# Settings in all cases: glycan notation: IUPAC condensed, linker removed
# [1] = biological target: Gal(b1-4)GlcNAc(b1-3)Gal(b1-4)GlcNAc(b1-2)[Gal(b1-4)GlcNAc(b1-3)Gal(b1-4)GlcNAc(b1-6)]Man(a1-6)[Gal(b1-4)GlcNAc(b1-3)Gal(b1-4)GlcNAc(b1-2)Man(a1-3)]Man(b1-4)GlcNAc(b1-4)GlcNAc
# Summary of the method: (§1)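 Glycan array binding is given as a within-array Z-score, which can be read as non-binding when negative. The arrays, 3228 of them, came from the Consortium for Functional Glycomics database and were retained only where the protein sequence was available. Z-scores were averaged across arrays of the same protein sequence at different concentrations or buffers and across linkers.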
# [2] = biological target: Gal(b1-4)GlcNAc(b1-3)Gal(b1-4)GlcNAc(b1-2)[Gal(b1-4)GlcNAc(b1-3)Gal(b1-4)GlcNAc(b1-6)]Man(a1-6)[Gal(b1-4)GlcNAc(b1-3)Gal(b1-4)GlcNAc(b1-2)Man(a1-3)]Man(b1-4)GlcNAc(b1-4)[Fuc(a1-6)]GlcNAc
# Summary of the method: as §1
# [3] = biological target: Gal(b1-4)GlcNAc(b1-3)Gal(b1-4)GlcNAc(b1-3)Gal(b1-4)GlcNAc
# Summary of the method: as §1
# [4] = biological target: Gal(b1-4)GlcNAc(b1-3)Gal(b1-4)GlcNAc(b1-3)Gal(b1-4)GlcNAc(b1-2)Man(a1-3)[Gal(b1-4)GlcNAc(b1-3)Gal(b1-4)GlcNAc(b1-3)Gal(b1-4)GlcNAc(b1-2)Man(a1-6)]Man(b1-4)GlcNAc(b1-4)GlcNAc
# Summary of the method: as §1
# [5] = biological target: Gal(b1-4)GlcNAc(b1-3)Gal(b1-4)GlcNAc(b1-3)Gal(b1-4)GlcNAc(b1-2)Man(a1-3)[Gal(b1-4)GlcNAc(b1-3)Gal(b1-4)GlcNAc(b1-3)Gal(b1-4)GlcNAc(b1-2)Man(a1-6)]Man(b1-4)GlcNAc(b1-4)[Fuc(a1-6)]GlcNAc
# Summary of the method: as §1
# [6] = biological target: Gal(b1-4)GlcNAc(b1-3)Gal(b1-4)GlcNAc(b1-3)Gal(b1-4)GlcNAc(b1-2)[Gal(b1-4)GlcNAc(b1-3)Gal(b1-4)GlcNAc(b1-3)Gal(b1-4)GlcNAc(b1-6)]Man(a1-6)[Gal(b1-4)GlcNAc(b1-3)Gal(b1-4)GlcNAc(b1-3)Gal(b1-4)GlcNAc(b1-2)Man(a1-3)]Man(b1-4)GlcNAc(b1-4)[Fuc(a1-6)]GlcNAc
# Summary of the method: as §1
# [7] = biological target: Gal(b1-4)GlcNAc(b1-3)Gal(b1-4)GlcNAc(b1-3)Gal(b1-4)GlcNAc(b1-3)Gal(b1-4)GlcNAc(b1-2)Man(a1-3)[Gal(b1-4)GlcNAc(b1-3)Gal(b1-4)GlcNAc(b1-3)Gal(b1-4)GlcNAc(b1-3)Gal(b1-4)GlcNAc(b1-2)Man(a1-6)]Man(b1-4)GlcNAc(b1-4)GlcNAc
# Summary of the method: as §1
# [8] = biological target: Gal(b1-4)GlcNAc(b1-3)Gal(b1-4)GlcNAc(b1-3)Gal(b1-4)GlcNAc(b1-3)Gal(b1-4)GlcNAc(b1-2)Man(a1-3)[Gal(b1-4)GlcNAc(b1-3)Gal(b1-4)GlcNAc(b1-3)Gal(b1-4)GlcNAc(b1-3)Gal(b1-4)GlcNAc(b1-2)Man(a1-6)]Man(b1-4)GlcNAc(b1-4)[Fuc(a1-6)]GlcNAc
# Summary of the method: as §1
# [9] = biological target: Gal(b1-4)GlcNAc(b1-3)Gal(b1-4)GlcNAc(b1-3)Gal(b1-4)GlcNAc(b1-3)Gal(b1-4)GlcNAc(b1-2)[Gal(b1-4)GlcNAc(b1-3)Gal(b1-4)GlcNAc(b1-3)Gal(b1-4)GlcNAc(b1-3)Gal(b1-4)GlcNAc(b1-6)]Man(a1-6)[Gal(b1-4)GlcNAc(b1-3)Gal(b1-4)GlcNAc(b1-3)Gal(b1-4)GlcNAc(b1-3)Gal(b1-4)GlcNAc(b1-2)Man(a1-3)]Man(b1-4)GlcNAc(b1-4)[Fuc(a1-6)]GlcNAc
# Summary of the method: as §1
# [10] = biological target: Gal(b1-4)GlcNAc(b1-3)Gal(b1-4)GlcNAc(b1-3)Gal(b1-4)GlcNAc(b1-3)Gal(b1-4)GlcNAc(b1-3)Gal(b1-4)GlcNAc(b1-2)Man(a1-3)[Gal(b1-4)GlcNAc(b1-3)Gal(b1-4)GlcNAc(b1-3)Gal(b1-4)GlcNAc(b1-3)Gal(b1-4)GlcNAc(b1-3)Gal(b1-4)GlcNAc(b1-2)Man(a1-6)]Man(b1-4)GlcNAc(b1-4)GlcNAc
# Summary of the method: as §1
# [11] = biological target: Gal(b1-4)GlcNAc(b1-3)Gal(b1-4)GlcNAc(b1-3)Gal(b1-4)GlcNAc(b1-3)Gal(b1-4)GlcNAc(b1-3)Gal(b1-4)GlcNAc(b1-2)Man(a1-3)[Gal(b1-4)GlcNAc(b1-3)Gal(b1-4)GlcNAc(b1-3)Gal(b1-4)GlcNAc(b1-3)Gal(b1-4)GlcNAc(b1-3)Gal(b1-4)GlcNAc(b1-2)Man(a1-6)]Man(b1-4)GlcNAc(b1-4)[Fuc(a1-6)]GlcNAc
# Summary of the method: as §1
# [12] = biological target: Gal(b1-4)GlcNAc(b1-3)Gal(b1-4)GlcNAc(b1-3)Gal(b1-4)GlcNAc(b1-3)Gal(b1-4)GlcNAc(b1-3)Gal(b1-4)GlcNAc(b1-2)[Gal(b1-4)GlcNAc(b1-3)Gal(b1-4)GlcNAc(b1-3)Gal(b1-4)GlcNAc(b1-3)Gal(b1-4)GlcNAc(b1-3)Gal(b1-4)GlcNAc(b1-6)]Man(a1-6)[Gal(b1-4)GlcNAc(b1-3)Gal(b1-4)GlcNAc(b1-3)Gal(b1-4)GlcNAc(b1-3)Gal(b1-4)GlcNAc(b1-3)Gal(b1-4)GlcNAc(b1-2)Man(a1-3)]Man(b1-4)GlcNAc(b1-4)[Fuc(a1-6)]GlcNAc
# Summary of the method: as §1
# [13] = biological target: Gal(b1-4)GlcNAc(b1-3)Gal(b1-4)GlcNAc(b1-3)Gal(b1-4)GlcNAc(b1-3)Gal(b1-4)GlcNAc(b1-3)Gal(b1-4)GlcNAc(b1-3)Gal(b1-4)GlcNAc(b1-2)Man(a1-3)[Gal(b1-4)GlcNAc(b1-3)Gal(b1-4)GlcNAc(b1-3)Gal(b1-4)GlcNAc(b1-3)Gal(b1-4)GlcNAc(b1-3)Gal(b1-4)GlcNAc(b1-3)Gal(b1-4)GlcNAc(b1-2)Man(a1-6)]Man(b1-4)GlcNAc(b1-4)GlcNAc
# Summary of the method: as §1
# [14] = biological target: Gal(b1-4)GlcNAc(b1-3)Gal(b1-4)GlcNAc(b1-3)GalNAc
# Summary of the method: as §1
# [15] = biological target: Gal(b1-4)GlcNAc(b1-3)Gal(b1-4)GlcNAc(b1-3)[Gal(b1-4)GlcNAc(b1-3)Gal(b1-4)GlcNAc(b1-6)]GalNAc
# Summary of the method: as §1
# [16] = biological target: Gal(b1-4)GlcNAc(b1-3)Gal(b1-4)GlcNAc(b1-6)[Gal(b1-3)]GalNAc
# Summary of the method: as §1
# [17] = biological target: Gal(b1-4)GlcNAc(b1-3)Gal(b1-4)[Fuc(a1-3)]GlcNAc(b1-3)Gal(b1-4)[Fuc(a1-3)]GlcNAc
# Summary of the method: as §1
# [18] = biological target: Gal(b1-4)GlcNAc(b1-3)GalNAc
# Summary of the method: as §1
# [19] = biological target: Gal(b1-4)GlcNAc(b1-3)[Fuc(a1-3)GlcNAc(b1-6)]Gal(b1-4)Glc
# Summary of the method: as §1
# [20] = biological target: Gal(b1-4)GlcNAc(b1-3)[Gal(b1-4)GlcNAc(b1-6)]Gal(b1-4)GlcNAc
# Summary of the method: as §1
# [21] = biological target: Gal(b1-4)GlcNAc(b1-3)[GlcNAc(b1-6)]Gal(b1-4)GlcNAc
# Summary of the method: as §1
# [22] = biological target: Gal(b1-4)GlcNAc(b1-6)Gal(b1-4)GlcNAc
# Summary of the method: as §1
# [23] = biological target: Gal(b1-4)GlcNAc(b1-6)GalNAc
# Summary of the method: as §1
# [24] = biological target: Gal(b1-4)GlcNAc(b1-6)[Gal(b1-3)]GalNAc
# Summary of the method: as §1
# [25] = biological target: Gal(b1-4)GlcNAc(b1-6)[Gal(b1-4)GlcNAc(b1-3)]GalNAc
# Summary of the method: as §1
# Gal(b1-4)GlcNAc6P = biological target: Gal(b1-4)GlcNAc6P
# Summary of the method: as §1
# Gal(b1-6)Gal = biological target: Gal(b1-6)Gal
# Summary of the method: as §1
# Gal3S(b1-3)GalNAc = biological target: Gal3S(b1-3)GalNAc
# Summary of the method: as §1
# Gal3S(b1-3)GlcNAc = biological target: Gal3S(b1-3)GlcNAc
# Summary of the method: as §1
# [26] = biological target: Gal3S(b1-3)[Fuc(a1-4)]GlcNAc
# Summary of the method: as §1
binder,measurement,setting,value
"CD4 (Rattus norvegicus), P05540 (protein) MCRGFSFRHLLPLLLLQLSKLLVVTQGSTSITAYKSEGESAEFSFPLNLGEESLQGELRWKAEKAPSSQSWITFSLKNQKVSVQKSTSNPKFQLSETLPLTLQIPQVSLQFAGSGNLTLTLDRGILYQEVNLVVMKVTQPDSNTLTCEVMGPTSPKMRLILKQENQEARVSRQEKVIQVQAPEAGVWQCLLSEGEEVKMDSKIQVLSKGLNSGGGSGGGTGGGDLAPQMLRELQETNAALQDVRELLRQQVKEITFLKNTVMECDACGLDRNLPPLAPLGPHPETLVKVKDAEDQLGARVGYIELDLNSGKILESFRPEERFPMMSTFKVLLCGAVLSRIDAGQEQLGRRIHYSQNDLVEYSPVTEKHLTDGMTVRELCSAAITMSDNTAANLLLTTIGGPKELTAFLHNMGDHVTRLDRWEPELNEAIPNDERDTTMPVAMATTLRKLLTGELLTLASRQQLIDWMEADKVAGPLLRSALPAGWFIADKSGAGERGSRGIIAALGPDGKPSRIVVIYTTGSQATMDERNRQIAEIGASLIKHW",glycan array binding signal (z-score),[1],2.6
same,glycan array binding signal (z-score),[2],0.073
same,glycan array binding signal (z-score),[3],-0.369
same,glycan array binding signal (z-score),[4],1.19
same,glycan array binding signal (z-score),[5],-1.03
same,glycan array binding signal (z-score),[6],0.466
same,glycan array binding signal (z-score),[7],0.924
same,glycan array binding signal (z-score),[8],2.6
same,glycan array binding signal (z-score),[9],0.072
same,glycan array binding signal (z-score),[10],0.742
same,glycan array binding signal (z-score),[11],2.8
same,glycan array binding signal (z-score),[12],0.531
same,glycan array binding signal (z-score),[13],-1.29
same,glycan array binding signal (z-score),[14],-0.339
same,glycan array binding signal (z-score),[15],1.31
same,glycan array binding signal (z-score),[16],-0.002
same,glycan array binding signal (z-score),[17],0.113
same,glycan array binding signal (z-score),[18],0.322
same,glycan array binding signal (z-score),[19],-0.382
same,glycan array binding signal (z-score),[20],-0.368
same,glycan array binding signal (z-score),[21],0.553
same,glycan array binding signal (z-score),[22],-0.486
same,glycan array binding signal (z-score),[23],-0.291
same,glycan array binding signal (z-score),[24],-1.17
same,glycan array binding signal (z-score),[25],-0.489
same,glycan array binding signal (z-score),Gal(b1-4)GlcNAc6P,-0.075
same,glycan array binding signal (z-score),Gal(b1-6)Gal,2.58
same,glycan array binding signal (z-score),Gal3S(b1-3)GalNAc,0.228
same,glycan array binding signal (z-score),Gal3S(b1-3)GlcNAc,-0.868
same,glycan array binding signal (z-score),[26],0.848

# 2 consecutive records already listed:
binder,measurement,setting,value
"CD4 (Rattus norvegicus), P05540 (protein) MCRGFSFRHLLPLLLLQLSKLLVVTQGSTSITAYKSEGESAEFSFPLNLGEESLQGELRWKAEKAPSSQSWITFSLKNQKVSVQKSTSNPKFQLSETLPLTLQIPQVSLQFAGSGNLTLTLDRGILYQEVNLVVMKVTQPDSNTLTCEVMGPTSPKMRLILKQENQEARVSRQEKVIQVQAPEAGVWQCLLSEGEEVKMDSKIQVLSKGLNSGGGSGGGTGGGDLAPQMLRELQETNAALQDVRELLRQQVKEITFLKNTVMECDACGLDRNLPPLAPLGPHPETLVKVKDAEDQLGARVGYIELDLNSGKILESFRPEERFPMMSTFKVLLCGAVLSRIDAGQEQLGRRIHYSQNDLVEYSPVTEKHLTDGMTVRELCSAAITMSDNTAANLLLTTIGGPKELTAFLHNMGDHVTRLDRWEPELNEAIPNDERDTTMPVAMATTLRKLLTGELLTLASRQQLIDWMEADKVAGPLLRSALPAGWFIADKSGAGERGSRGIIAALGPDGKPSRIVVIYTTGSQATMDERNRQIAEIGASLIKHW",glycan array binding signal (z-score),Gal3S(b1-3)GalNAc,0.228
same,glycan array binding signal (z-score),Gal3S(b1-3)GlcNAc,-0.868
